US20150232556A1
Residue numbers refer to the chain shown, from its start. No constants are given. Whether binding was seen depends on the method and setting. Some results given as binding are weak or reduced against the parent protein; the word gives no strength. One block for each binder: values may come before it.

Amino acid sequences for entries named in this document (tags omitted). A change or cut given only in a name is not applied to a line headed by its entry. Residues count along the entry.
UniProt P43630, residues 22-455: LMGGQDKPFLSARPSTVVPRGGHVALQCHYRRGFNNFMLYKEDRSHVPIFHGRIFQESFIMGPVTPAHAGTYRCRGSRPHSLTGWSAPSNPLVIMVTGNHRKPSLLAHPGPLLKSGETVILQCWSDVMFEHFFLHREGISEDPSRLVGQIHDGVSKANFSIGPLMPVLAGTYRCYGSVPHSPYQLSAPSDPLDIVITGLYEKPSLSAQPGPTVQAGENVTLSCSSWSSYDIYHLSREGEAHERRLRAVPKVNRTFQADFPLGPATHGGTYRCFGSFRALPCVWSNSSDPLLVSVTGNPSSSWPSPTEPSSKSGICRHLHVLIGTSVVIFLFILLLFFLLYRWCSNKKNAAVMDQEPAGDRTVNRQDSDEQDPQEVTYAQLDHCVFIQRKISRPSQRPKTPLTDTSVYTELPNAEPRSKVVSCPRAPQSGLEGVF

How the values were obtained:
[1] = biological target: KIR3DL2 on the HUT78 Sezary cell line (heterozygous for alleles 3DL2*002 and 3DL2*007) (human) (UniProt P43630); assay: flow cytometry on HUT78 cells after 1, 24 or 48 h at 37° C.
[2] = biological target: KIR3DL2 on the HUT78 Sezary cell line (heterozygous for alleles 3DL2*002 and 3DL2*007) (human) (UniProt P43630); assay: flow cytometry on HUT78 cells, dose range 0.0005 to 30 µg/ml, anti-human-Fc PE
[3] = biological target: KIR3DL2 on the HUT78 Sezary cell line (heterozygous for alleles 3DL2*002 and 3DL2*007) (human) (UniProt P43630); assay: flow cytometry on HUT78 cells after 20 h at 37° C.
[4] = biological target: KIR3DL2 on the HUT78 Sezary cell line (heterozygous for alleles 3DL2*002 and 3DL2*007) (human) (UniProt P43630); assay: flow cytometry on HUT78 cells
[5] = biological target: KIR3DL2 on the HUT78 Sezary cell line (heterozygous for alleles 3DL2*002 and 3DL2*007) (human) (UniProt P43630); assay: fluorescence microscopy on HUT78 cells, 10 µg/ml antibody
[6] = biological target: KIR3DL2 mutant M1 + 2A2 (Q56S; E57A) (human) (UniProt P43630); assay: binding to HEK-293T cells transfected with KIR3DL2 mutant
[7] = biological target: KIR3DL2 Domain 0 expressed on HEK-293T cells (human) (UniProt P43630); assay: flow cytometry screen, HEK-293T/KIR3DL2 Domain 0-eGFP
[8] = biological target: human KIR3DL2 on cells, allele not stated (human) (UniProt P43630); assay: fresh Sezary Syndrome cells, 24 h at 37° C., goat anti-mouse-PE, flow cytometry
[9] = biological target: human KIR3DL2 on cells, allele not stated (human) (UniProt P43630); assay: flow cytometry screens on KIR3DL2-expressing cells

B4: antibody 1C3 (antibody, V domains shown)
VH: QVQLQQSGAELARPGASVKLSCKASGYTFTSYWMQWVKQRPGQGLEWIGAIYPGDGDTRYTQKFKGKATLTADKSSSTAYMQLSSLASEDSAVYYCARRYDGYYHFDYWGQGTTLTVS
VL: DIVMTQSPSSLAVTAGEKVTMSCKSSQSLLWSVNQKNYLSWYQQKQRQPPKLLIYGASIRESWVPDRFTGSGSGTDFTLTISNVHAEDLAVYYCQHNHGSFLPLTFGSGTKLEIK
binding [5]: binds | binding [9]: binds | binding [8]: binds

B5: antibody 10G5 (antibody, V domains shown)
VH: QVQLQQSAAELARPGASVKMSCKASGYTFTSYTMHWVKQRPGQGLEWIGYINPSSGYTENNRKFKDKTTLTADKSSSTAYMQLSSLTSEDSAVYYCARLGKGLLPPFDYWGQGTTLTVSS
VL: DIQMTQSPASLSVSVGETVTITCRASENIYSNLAWYQQKQGKSPQLLVYAATNLADGVPSRFSGSGSGTQYSLKINSLQSEDFGSYYCQHFWGTPYTFGGGTKLEIK
binding [7]: binds

B6: antibody 20E9 (antibody, V domains shown)
VH: QVQLQQSGAEVARPGASVKLSCKSSGFTFTTYWMQWVKQRPGQGLEWIGAIYPGDGDTRYTQKFKGKATLTADKSSITAYMQLSSLASEDSAVYYCARRGDYGNYGMDYWGQGTSVTVSS
VL: DVLMTQTPLSLPVSLGDQASISCRSSQSIVHSNGNTYLEWYLQKPGQSPKLLIYKVSNHFSGVPDRFSGSGSGTDFTLKISRVEAEDLGVYYCFQGSHVPPTFGGGTKLEIK
binding [5]: binds | binding [9]: binds | binding [8]: binds

Next, values leading:

binding [1]: binds | binding [2]: binds | binding [3]: binds | binding [4]: binds
B1: antibody 2B12 (human IgG1) (antibody, V domains shown)
VH: QIQLVQSGPELKKPGETVRISCKASGYTFTTAGMQWVQKTPGKGLKWIGWINSHSGVPKYAEDFKGRFAFSLETSASTAYLQISTLKNEDTATYFCARGGDEGVMDYWGQGTSVTVS
VL: DIVMTQSHKFMSTSLGDRVSFTCKASQDVSTAVAWYQQKPGQSPKLLIYWTSTRHTGVPDRFTGSGSGTDYTLTISSVQAEDLALYYCQQHYSTPWTFGGGTKLEIK

binding [5]: binds | binding [6]: binds | binding [7]: binds | binding [8]: binds
B2: antibody 2B12 (antibody, V domains shown)
VH: B1 VH
VL: B1 VL

binding [5]: binds | binding [6]: binds | binding [7]: binds | binding [8]: binds
B3: antibody 10F6 (antibody, V domains shown)
VH: B1 VH with T31I, T40M, S53T, S77N, T78I, T85N
VL: B1 VL with L15V, F21I, Q37H, T51A, T63S, S77A, V78L, S93N
